Literature values as cited in patent publication US11712434B2, “Compound having anti-cancer effect, and preparation method therefor and use thereof” (3D MEDICINES (BEIJING) CO., LTD., priority 2016, dated 2023).
For at least one compound, name, drawing or mass did not settle the structure.

Test system: liver cancer
Conditions: liver cancer patients, phase III; cited from earlier work

Compound: Cc1ccc(F)c(NC(=O)Nc2ccc(-c3cccc4[nH]nc(N)c34)cc2)c1 [Linifanib, reference compound]
- ORR (overall response rate): 13.0%
- TTP (time to progression): 5.4 months
